Results: article PMC5970211
These are yes or no findings as the source states them, for the method shown. Binding seen in cells or lysates may run through a third protein. Some results given as binding are weak or reduced against the parent protein; the word gives no strength.

What was measured:
[1] = molecular target: Na+/K+ ATPases β1 subunit (rat (endogenous in hippocampal CA1)) (UniProt P07340); assay: proximity ligation; Duolink In Situ Red kit on dorsal hippocampus sections of Sham rats and of tGCI and HPC rats 26 h after reperfusion; rabbit anti-Ngb and mouse anti-Atp1b1
[2] = molecular target: Na+/K+ ATPases β1 subunit (rat (endogenous in hippocampal CA1)) (UniProt P07340); assay: co-IP; 150 μg membrane proteins of hippocampal CA1 from Sham, tGCI and HPC rats; IP with mouse anti-Atp1b1 antibody at 4 °C overnight, protein G agarose, washed five times with PBS containing 1% Tween; blot with rabbit anti-Ngb

binding [1]: binds | binding [2]: binds
B1: Neuroglobin (protein, UniProt Q99JA8 1-151)
chain: MERPESELIRQSWRAVSRSPLEHGTVLFSRLFALEPSLLPLFQYNGRQFSSPEDCLSSPEFLDHIRKVMLVIDAAVTNVEDLSSLEEYLATLGRKHRAVGVRLSSFSTVGESLLYMLEKCLGPDFTPATRTAWSQLYGAVVQAMSRGWDGE
